# Experimental data as given in PubChem BioAssay AID588848 (Broad Institute, 2011).
# By UniProt entry, the sequences of proteins in these tests, tags left out. Where a name states a change or a piece, a line headed by the entry shows the natural chain unless it says otherwise.
# UniProt Q9Y256: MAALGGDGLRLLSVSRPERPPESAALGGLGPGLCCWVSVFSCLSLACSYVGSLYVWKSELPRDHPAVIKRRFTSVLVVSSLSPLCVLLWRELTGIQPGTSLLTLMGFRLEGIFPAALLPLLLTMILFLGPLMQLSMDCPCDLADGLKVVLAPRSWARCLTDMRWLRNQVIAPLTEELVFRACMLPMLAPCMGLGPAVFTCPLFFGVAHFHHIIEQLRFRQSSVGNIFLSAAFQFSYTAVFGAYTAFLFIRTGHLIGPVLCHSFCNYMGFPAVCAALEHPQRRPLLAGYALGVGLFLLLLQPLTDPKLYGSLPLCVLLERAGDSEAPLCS
# Inconclusive results, whose numbers are uncertain, are shown with a selection of clear calls. Active and inactive are the calls of the source.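 How the source made its calls: active means fitted half-maximal inhibiting dose no more than ten times the top valid dose tested; inconclusive means flat activity from -30 to -70%, or unreliable curve fit; inactive means the rest.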
# Molecular target: CAAX prenyl protease 2 (Homo sapiens) (UniProt Q9Y256)
# Assay: inhibition of Ras-converting CAAX endoprotease – biochemical, plate reader, dry powder samples, dose response (AID 588848)
# Details: yeast membranes expressing human Rce1, fluorogenic peptide cleavage; at 30 µM (top of the series)
row,Compound,"activity change, negative = inhibition"
1,O=C(CCNC(=O)N1CC(=O)Nc2ccccc21)NCCc1cccc(F)c1,inconclusive: -0.555%
2,CCOc1ccc(-n2c(SCc3ccc([N+](=O)[O-])cc3)nnc2-c2ccc(OC)cc2)cc1,inconclusive: -42.4%
3,Cc1cc(C)n(Cc2ccc(NC(=O)c3ccc(COc4ccccc4Br)cc3)cc2)n1,inconclusive: -1.81%
4,Cc1ccc(NC(=O)CCc2ccc(S(=O)(=O)NC3CCCCC3)cc2)cc1,inactive: 9.46%
5,CCOc1cccc(-c2c(C(=O)N/N=C/c3cccs3)nnn2-c2nonc2N)c1,inactive: 14%
